US20220204449A1, “BIASED AGONISTS OF OPIOID RECEPTORS” (ILDONG PHARMACEUTICAL CO., LTD., priority 2020, published 2022)
Some results were stated once for a whole list of compounds, not compound by compound.

Protein sequences, listed by entry. Tags and fused reporters are not part of them.
UniProt P35372, whole entry: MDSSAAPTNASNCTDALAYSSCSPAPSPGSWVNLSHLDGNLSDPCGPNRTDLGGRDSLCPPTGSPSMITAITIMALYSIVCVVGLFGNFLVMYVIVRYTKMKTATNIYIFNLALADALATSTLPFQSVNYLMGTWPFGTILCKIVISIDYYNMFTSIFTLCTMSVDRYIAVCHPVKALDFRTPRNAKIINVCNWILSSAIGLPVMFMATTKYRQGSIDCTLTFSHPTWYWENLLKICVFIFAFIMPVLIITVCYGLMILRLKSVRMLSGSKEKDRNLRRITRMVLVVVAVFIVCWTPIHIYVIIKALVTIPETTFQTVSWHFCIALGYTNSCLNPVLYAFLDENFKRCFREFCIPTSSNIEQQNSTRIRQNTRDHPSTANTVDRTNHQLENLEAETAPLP

How the values were obtained:
Format in all cases: cell-based
[1] = target: T1, human μ-opioid receptor, OPRM (Homo sapiens, UniProt P35372); experiment: cAMP accumulation assay (Gi pathway), OPRM cell line
T1 construct: host or cells: HEK-293 overexpressing β-arrestin2 fused to a β-galactosidase fragment
Excerpt: (§1) Human embryonic kidney 293 (HEK-293) cells which transfected overexpress (3-arrestin2 fused β-galactosidase fragment were purchased from DiscoverX. Human OPRM1 gene (NM 000914.3, encoding human μ-opioid receptor, OPRM) and Human OPRD1 gene (NM 000911.3, encoding human δ-opioid receptor, OPRD) were fused to a pCMV-ProLink plasmid which contains complementary β-galactosidase fragment purchased from DiscoverX. To generate human OPRM1 or OPRD1 expression cell lines, HEK-293 cells were transfected to prepared plasmid and grown in DMEM medium with 10% fetal bovine serum, 150 μg/mL Hygromycin B and 500 μg/mL G418.
(§2) Cyclic Adenosine Monophosphate (cAMP) Accumulation
(§3) The agonist's efficacy to the G protein pathway was determined by changes in the cAMP level using the Cisbio cAMP detection kit. The cells used in cAMP assays are the same cell line as used in the β-arrestin 2 assays. The human opioid receptor activates the Gαi so intracellular cAMP accumulation is inhibited. Cisbio detection kit uses labeled cAMP and antibody. This system proceeds to compete with endogenous cAMP. If Gαi is activated, intracellular cAMP decreases. This assures that labeled-cAMP binds more with the antibody so that time-resolved fluorescence […].
(§4) cAMP and β-arrestin assays described above were conducted to decide whether candidate compounds were μ- and/or δ-opioid receptor bias agonists for the G-protein pathway. All assays produced the concentration-response curve, and the curve data was validated by a quality control factor named Z′ factor. Because half-maximal effect concentration (EC50) depends on the population of receptors, the maximal asymptote of the concentration curve was used. Efficacy data of candidates was normalized by comparison to reference agonists DAMGO and SNC80 for OPRM and OPRD.
(§5) The hill slope describes the steepness of the curve. […] We set the appropriate interval of hill slope as 0.8<n<1.5 which maintains the sigmoidal curve shape.

[2] = target: T2, human δ-opioid receptor, OPRD (Homo sapiens, UniProt P41143); experiment: cAMP accumulation assay (Gi pathway), OPRD cell line
T2 construct: host or cells: HEK-293 overexpressing β-arrestin2 fused to a β-galactosidase fragment
Excerpt: as §1, §2, §3, §4, §5

[3] = target: T1, human μ-opioid receptor, OPRM; experiment: Dominant assay: cAMP assay with/without irreversible antagonist β-FNA, OPRM cell line; details: OPRM cell lines
Excerpt: To confirm the agonist's efficacy in a nature-like system, we need inactivation of target receptors on the cell membrane. Most cell lines have an abundant target receptor population (also known as spare receptors). Therefore, agonists have more opportunity to constitute agonist-receptor conformation. In this environment, not only full agonists but also partial agonists can reach maximal response.
If the partial agonist is selected as a full agonist, translational in vivo research will likely fail.
Non-competitive, irreversible antagonists can be applicable to judge the pharmacological character of agonists because they permanently decrease the receptor population in the cell line system. β-FNA or β-CNA is used as a non-competitive and irreversible antagonist for OPRM, OPRD. Before cAMP assay, cells were incubated with β-FNA or β-CNA for 40 minutes. Afterwards, the procedure is the same.
If a partial agonist compound acts as a full agonist due to receptor population (pseudo full agonist), it cannot sustain maximal response with reduced receptor population. However, a full agonist compound maintains their maximal response even though increased EC50.

[4] = target: T1, human μ-opioid receptor, OPRM; experiment: PathHunter β-arrestin 2 assay, OPRM cell line
Excerpt: as §1
(§6) The PathHunter enzyme assay was performed to measure the agonist's capability of β-arrestin 2 pathway activation. When agonists bind to G protein-coupled receptor (GPCR), the receptor pathway is sequentially activated from G protein to β-arrestin 2 recruitment.
(§7) Because […] β-arrestin 2 and C-terminal of GPCR have a fragment of β-galactosidase, recruitment of β-arrestin 2 to GPCR forms the whole β-galactosidase. The functionality of the whole β-galactosidase is detected by chemiluminescence (FlexStation3, Molecular Devices).
as §4

[5] = target: T2, human δ-opioid receptor, OPRD; experiment: PathHunter β-arrestin 2 assay, OPRD cell line
Excerpt: as §1, §6, §7, §4

Compound | Gi pathway agonism, in words [1] | Gi pathway agonism, in words [2] | maximal response on decreasing receptor population (dominant tendency), in words ([3]; listed as compound 1) | β-arrestin pathway activation / bARR2 recruitment, in words [4] | β-arrestin pathway activation / bARR2 recruitment, in words [5] | maximal response on decreasing receptor population (dominant tendency), in words ([3]; listed as compound 2) | maximal response on decreasing receptor population (dominant tendency), in words ([3]; listed as compound 3)
CN(C)C(CNC(=O)Cc1ccc2c(c1)OCCO2)c1ccccc1 (single isomer, unassigned) [Compound 5] | showed Gi efficacy against both receptors | showed Gi efficacy against both receptors | – | – | – | – | –
CN1CCc2cc(C(CNC(=O)Nc3ccc(F)cc3)N(C)C)ccc21 (single isomer, unassigned) [Compound 6] | showed Gi efficacy against both receptors | showed Gi efficacy against both receptors | – | – | – | – | –
CN(C)C(CNC(=O)Cc1ccc2c(c1)OCCO2)c1ccccc1 (racemic) [Compound 1, 2-(2,3-dihydro-1,4-benzodioxin-6-yl)-N-[2-(dimethylamino)-2-phenylethyl]acetamide] | full Gi pathway agonism | full Gi pathway agonism | resistant to decrease spare receptors-induced tendency | slight activation of the β-arrestin pathway | slight activation of the β-arrestin pathway | – | –
CN1CCc2cc(C(CNC(=O)Nc3ccc(F)cc3)N(C)C)ccc21 (racemic) [Compound 2, 3-[2-(dimethylamino)-2-(1-methyl-2,3-dihydro-1H-indol-5-yl)ethyl]-1-(4-fluorophenyl)urea] | full Gi pathway agonism | full Gi pathway agonism | – | slight activation of the β-arrestin pathway | slight activation of the β-arrestin pathway | resistant to decrease spare receptors-induced tendency | –
CN1CCc2cc(C(CNC(=O)Nc3ccc(F)cc3)N(C)C)ccc21 (single isomer, unassigned) [Compound 7] | showed Gi efficacy against both receptors | showed Gi efficacy against both receptors | – | – | – | – | –
Cc1ccccc1NC(=O)NCC(c1ccc2c(c1)CCO2)N(C)C (racemic) [Compound 3, 3-[2-(2,3-dihydro-1-benzofuran-5-yl)-2-(dimethylamino)ethyl]-1-(2-methylphenyl)urea] | full Gi pathway agonism | full Gi pathway agonism | – | slight activation of the β-arrestin pathway | slight activation of the β-arrestin pathway | – | resistant to decrease spare receptors-induced tendency
Cc1ccccc1NC(=O)NCC(c1ccc2c(c1)CCO2)N(C)C (single isomer, unassigned) [Compound 8] | showed Gi efficacy against both receptors | showed Gi efficacy against both receptors | – | – | – | – | –
